Source: PubChem BioAssay AID651768 (National Center for Advancing Translational Sciences (NCATS), 2012)
The campaign covered roughly 360,000 compounds. About 1,700 (0.47%) were called active. This list was built around the results that the source calls inconclusive (neither active nor inactive); the mix of calls is not that of the screen. Calls come from the whole dose curve; as a rule, active = well fitted inhibition curve with a large enough effect; inconclusive = small, poorly fitted or top-dose-only effect; inactive = no such curve, though single readings can be large or run the other way. Potencies of inconclusive entries are doubtful fits and often do not repeat.

Amino acid sequences for entries named in this document (tags omitted).
UniProt Q14191, whole entry, looked up: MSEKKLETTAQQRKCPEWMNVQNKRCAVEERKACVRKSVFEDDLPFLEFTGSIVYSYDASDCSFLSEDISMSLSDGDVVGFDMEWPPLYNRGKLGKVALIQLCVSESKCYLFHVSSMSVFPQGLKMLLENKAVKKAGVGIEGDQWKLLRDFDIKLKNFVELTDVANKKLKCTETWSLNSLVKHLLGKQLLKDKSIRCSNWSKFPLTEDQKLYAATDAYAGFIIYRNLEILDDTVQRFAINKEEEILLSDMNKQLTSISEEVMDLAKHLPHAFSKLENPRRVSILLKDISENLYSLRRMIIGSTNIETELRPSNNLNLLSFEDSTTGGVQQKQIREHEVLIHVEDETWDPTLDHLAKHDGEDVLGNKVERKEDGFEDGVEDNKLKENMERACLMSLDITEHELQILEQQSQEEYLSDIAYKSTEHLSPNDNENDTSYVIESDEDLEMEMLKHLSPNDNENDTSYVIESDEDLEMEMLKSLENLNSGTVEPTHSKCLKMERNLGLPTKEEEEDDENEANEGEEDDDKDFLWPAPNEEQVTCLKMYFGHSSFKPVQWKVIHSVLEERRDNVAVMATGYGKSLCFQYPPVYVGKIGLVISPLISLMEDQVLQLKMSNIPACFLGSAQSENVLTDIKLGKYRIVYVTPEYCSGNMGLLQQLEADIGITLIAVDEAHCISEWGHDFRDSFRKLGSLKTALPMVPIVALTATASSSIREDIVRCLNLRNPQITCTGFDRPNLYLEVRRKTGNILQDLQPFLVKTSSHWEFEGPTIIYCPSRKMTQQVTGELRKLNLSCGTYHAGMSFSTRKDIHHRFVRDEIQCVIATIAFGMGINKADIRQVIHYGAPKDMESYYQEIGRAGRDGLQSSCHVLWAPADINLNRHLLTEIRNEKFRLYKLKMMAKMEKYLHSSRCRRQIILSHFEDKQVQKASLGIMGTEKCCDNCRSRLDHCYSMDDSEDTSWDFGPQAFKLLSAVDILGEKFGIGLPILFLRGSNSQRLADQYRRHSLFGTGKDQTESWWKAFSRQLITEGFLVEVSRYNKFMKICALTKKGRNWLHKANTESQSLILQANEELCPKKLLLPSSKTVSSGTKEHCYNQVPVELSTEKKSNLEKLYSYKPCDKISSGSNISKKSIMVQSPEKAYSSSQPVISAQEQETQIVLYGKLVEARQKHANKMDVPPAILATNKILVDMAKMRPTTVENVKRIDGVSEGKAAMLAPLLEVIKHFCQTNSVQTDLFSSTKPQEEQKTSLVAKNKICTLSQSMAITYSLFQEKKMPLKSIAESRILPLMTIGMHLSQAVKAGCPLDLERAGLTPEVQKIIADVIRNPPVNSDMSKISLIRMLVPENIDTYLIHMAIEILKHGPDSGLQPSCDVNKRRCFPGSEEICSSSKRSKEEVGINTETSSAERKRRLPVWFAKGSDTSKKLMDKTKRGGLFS

target: Bifunctional 3'-5' exonuclease/ATP-dependent helicase WRN (Homo sapiens) (UniProt Q14191); assay: qHTS for Inhibitors of WRN Helicase; details: WRN helicase unwinding, fluorescent forked duplex, kinetic; activity change, negative = inhibition: at 114 µM (top of the series) unless noted; note: nearly all actives have a fitted effect of over 55% in size
How it was run: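 Enzyme (20 nM final) and test compound sit together 15 min at room temperature before substrate addition. Substrate is a single-forked duplex oligonucleotide (100 nM) labelled with fluorophore and quencher, with 2 mM ATP; helicase unwinding raises red fluorescence, read kinetically.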
% is set by controls: 0 for no effect and ±100 for the full control effect; potency is the fitted concentration of half-maximal effect.

Q: `COc1cc(N(C)C)ccc1C=c1c2ccccc2n2c1cc(-c1ccccc1)[n+]2C` was tested. Which Potency did it give?
A: Its Potency is active: 20 µM.

Q: `Cn1c(CN2CCCC2)nc2cc(NC(=O)COc3ccc(Cl)cc3)ccc21` was tested. Which “activity change, negative = inhibition” value did it give?
A: Its value is inactive: 1.57%.

Q: With `CN1C(=O)c2ccccc2C(C(=O)NCc2ccco2)C1c1c[nH]c2ccccc12` (stereo not given) as the molecule, how does the activity change, negative = inhibition read?
A: The activity change, negative = inhibition was inconclusive: -36.1% [inhibitor] [at 57.1 µM].

Q: How did the Potency turn out when `O=C(N/N=C/c1cc(Br)c(Br)o1)C(O)c1ccccc1` (stereo not given) was run?
A: Its Potency is inconclusive: 22.4 µM [inhibitor, full curve, poor fit].

Q: `Cc1ccc2[nH]c3c(c2c1)CN(C(=O)CN1CCN(c2cccc(C)c2C)CC1)CC3` was tested. Which activity change, negative = inhibition did it give?
A: Its activity change, negative = inhibition is inconclusive: -37.1% [inhibitor] [at 57.1 µM].

Q: `CC(=O)OC(C)C1C2=C(C(=O)CC1(C)O)C(=O)c1c(ccc(-c3ccc4c(c3O)C(=O)C3=C(C4=O)C(C(C)OC(C)=O)C(C)(O)CC3=O)c1O)C2=O` (stereo not given) was tested. Which Potency did it give?
A: Its Potency is inconclusive: 28.2 µM [inhibitor, partial curve].

Q: How did the Potency turn out when `Cc1cc(C)c(NC(=O)COC(=O)Cn2nc(-c3ccccc3)oc2=O)c(C)c1` was run?
A: Its Potency is inconclusive: 28.2 µM [inhibitor, full curve].

Q: Which Potency does the source give for `Cn1c(SCC(=O)Nc2sccc2C#N)nnc1-c1ccccc1` here?
A: The Potency was inconclusive: 56.2 µM [inhibitor, partial curve, poor fit].

Q: For `N#Cc1c(-c2ccc(F)cc2)cc(-c2cccnc2)nc1N`, which “activity change, negative = inhibition” value is on record?
A: Its value is inactive: -2.43%.

Q: `CCCc1nc2sc3c(SCC(=O)NCc4ccco4)ncnc3c2c2c1CCC2` was tested. Which Potency did it give?
A: Its Potency is active: 39.8 µM.

Q: `CCOC(CN=c1nc(N(C)C)ss1)OCC` was tested. Which Potency did it give?
A: The Potency was inconclusive: 14.1 µM [inhibitor, full curve, poor fit].

Q: Which “activity change, negative = inhibition” value does the source give for `CCN(CC)C(=O)/C(=C/c1cn(S(=O)(=O)N(C)C)c2ccccc12)NC(=O)c1ccc(OC)cc1` here?
A: Its value is inactive: 5.82%.

Q: How did the “activity change, negative = inhibition” value turn out when `Nc1c(-c2ccc(F)c(F)c2)nc2ncccn12` was run?
A: Its value is inactive: 4.82%.

Q: `O=C1NN(c2ccccc2)C(=O)/C1=C\c1coc2ccc(O)cc2c1=O` was tested. Which Potency did it give?
A: Its Potency is inconclusive: 18.9 µM [inhibitor, partial curve].

Q: For `CC(/C=N/n1c(-c2cc(C)[nH]n2)n[nH]c1=S)=C\c1ccco1`, which Potency is on record?
A: The Potency was inconclusive: 11.2 µM [inhibitor, full curve, poor fit].

Q: `O=C(O)c1ccc(N/N=C/c2ccc(F)c(F)c2)cc1` was tested. Which Potency did it give?
A: The Potency was inconclusive: 39.8 µM [inhibitor, single point].

Q: For `O=C(NCCCCNC(=O)c1cccs1)c1cccs1`, which “activity change, negative = inhibition” value is on record?
A: The value was inactive: -2.76%.

Q: How did the Potency turn out when `COc1ccc(CCn2c(N)c(C(=O)NCc3ccco3)c3nc4ccccc4nc32)cc1` was run?
A: The Potency was inconclusive: 79.4 µM [inhibitor, partial curve].

Q: Which Potency does the source give for `Oc1cccc(Nc2c3ccccc3nc3ccccc23)c1` here?
A: The Potency was inconclusive: 39.8 µM [inhibitor, partial curve].

Q: `CCOc1ccc(CCN2C(=S)N([C@@H](Cc3ccc(O)cc3)CN3CCC[C@@H]3CN3C(=S)NC[C@@H]3Cc3ccc(O)cc3)C[C@@H]2Cc2ccc(O)cc2)cc1` was tested. Which “activity change, negative = inhibition” value did it give?
A: The value was inactive: -11.3%.

Q: For `O=C(/C=C/c1ccco1)NCC1OCCc2ccccc21` (stereo not given), which Potency is on record?
A: The Potency was active: 56.2 µM.

Q: With `CC1=C(C(=O)OCC2CCCO2)C(c2ccccc2)C2=C(CC(C)(C)CC2=O)N1` (stereo not given) as the molecule, how does the Potency read?
A: The Potency was inconclusive: 12.6 µM [inhibitor, partial curve].

Q: Which Potency does the source give for `CC(=O)Oc1cc(O)c2c(=O)c(OC(C)=O)c(-c3ccc(OC(C)=O)c(OC(C)=O)c3)oc2c1` here?
A: Its Potency is inconclusive: 7.94 µM [inhibitor, full curve].

Q: Which Potency does the source give for `COc1ccc(NC(=O)/C(Cl)=C(/Cl)S(=O)Cc2ccc(Cl)cc2)cn1` (stereo not given) here?
A: Its Potency is active: 22.4 µM.

Q: `O=C(C1=C(O)C(=O)N(c2nc3ccc(Cl)cc3s2)C1c1ccco1)c1ccco1` (stereo not given) was tested. Which Potency did it give?
A: Its Potency is active: 50.1 µM.

Q: For `COc1ccc(NC(=O)/C(Cl)=C(/Cl)S(=O)Cc2ccccc2)cn1` (stereo not given), which Potency is on record?
A: The Potency was active: 31.6 µM.

Q: Which Potency does the source give for `COc1ccccc1N1C(=N)S/C(=C\c2ccc(-c3ccccc3C(=O)O)o2)C1=O` here?
A: The Potency was active: 28.2 µM.

Q: `COC(=O)CNC(=O)C1CC(=O)N(CCc2ccc(F)cc2)C1` (stereo not given) was tested. Which Potency did it give?
A: The Potency was inconclusive: 11.2 µM [inhibitor, full curve].

Q: With `O=C(NCC1CCCO1)c1ccccc1NS(=O)(=O)c1ccc(F)cc1` (stereo not given) as the molecule, how does the Potency read?
A: The Potency was inconclusive: 14.1 µM [inhibitor, partial curve].

Q: With `O=C(C#Cc1ccccc1)c1ccco1` as the molecule, how does the Potency read?
A: Its Potency is inconclusive: 3.77 µM [inhibitor, partial curve].

Q: How did the Potency turn out when `CCN(CC)c1ccc2cc(C(N)=O)c(=N)oc2c1` was run?
A: The Potency was inconclusive: 63.1 µM [inhibitor, single point].

Q: With `O=C(N/N=C/c1ccccn1)C(=O)N1CCCCCC1` as the molecule, how does the Potency read?
A: Its Potency is inconclusive: 3.55 µM [inhibitor, full curve, poor fit].

Q: How did the “activity change, negative = inhibition” value turn out when `O=C(O)c1ccccc1SC1CC(=O)N(C2CCCCC2)C1=O` (stereo not given) was run?
A: The value was inactive: -4.65%.

Q: How did the “activity change, negative = inhibition” value turn out when `N#Cc1cn(CC(=O)N2CCCc3ccccc32)c2ccccc12` was run?
A: The value was inactive: -1.24%.

Q: With `O=C(CCCN1C(=O)/C(=C/c2ccco2)SC1=S)Nc1cccc(C(=O)O)c1` as the molecule, how does the Potency read?
A: The Potency was active: 35.5 µM.

Q: With `CC(=O)Nc1ccc(NC(=O)CSc2ccc(-c3cccnc3)nn2)cc1` as the molecule, how does the Potency read?
A: The Potency was inconclusive: 28.2 µM [inhibitor, full curve, poor fit].

Q: For `Cc1ccccc1S(=O)(=O)NC(=O)C1(C)CCN1C(=O)C/C=C/c1ccccc1` (stereo not given), which “activity change, negative = inhibition” value is on record?
A: The value was inactive: -3.3%.

Q: For `Cc1ccc(S(=O)(=O)N[C@@H](Cc2ccccc2)C(=O)CCl)cc1`, which Potency is on record?
A: The Potency was inconclusive: 50.1 µM [inhibitor, partial curve].

Q: With `CC(C)c1nc(SCC(=O)Nc2nccs2)c2ccccc2n1` as the molecule, how does the Potency read?
A: The Potency was inconclusive: 70.8 µM [inhibitor, partial curve].

Q: Which “activity change, negative = inhibition” value does the source give for `CC1CCCC(N2CCN(S(=O)(=O)c3ccccc3)CC2)C1` (stereo not given) here?
A: The value was inactive: -5.23%.

Q: Which Potency does the source give for `O=C(COC(=O)c1cncc(Br)c1)NCc1ccccc1` here?
A: Its Potency is inconclusive: 89.1 µM [inhibitor, single point].

Q: For `CC(O)[C@H]1CNCCN1CCc1cccc(F)c1` (stereo not given in full), which “activity change, negative = inhibition” value is on record?
A: The value was inactive: -5.46%.

Q: With `Cc1ccc(NC(=O)C(C)OC(=O)c2cc(=O)[nH]c3ccccc23)cc1S(=O)(=O)N1CCOCC1` (stereo not given) as the molecule, how does the Potency read?
A: The Potency was inconclusive: 12.6 µM [inhibitor, full curve, poor fit].

Q: How did the Potency turn out when `O=C1N/C(=N/NC(=O)c2cccc3ccccc23)S/C1=C\c1ccccc1OCc1ccccc1` was run?
A: Its Potency is active: 56.2 µM.

Q: For `C[C@H]1CN([C@@H](C)CO)C(=O)CCCn2cc(nn2)CO[C@@H]1CN(C)C(=O)Nc1ccc2c(c1)OCO2`, which “activity change, negative = inhibition” value is on record?
A: The value was inactive: 7.88%.
